PubChem BioAssay AID652272 – Drosophila RNAi Screening Center | 2013
The deposit covers about 21,000 reagents; this is an unselected part of those with a known target gene and a result. Over the whole deposit, 503 (2.4%) got an active call. 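Raw plate light values, not normalised; calls rest on replicate z-scores that were not deposited; hits include reporter decreases as well as increases.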 A number with no mark means an inactive call. Names joined by + are all predicted targets of the reagent. Not given: the amount of reagent, the time to read-out.

Assay: 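Finding fly genes that regulate Hedgehog signal transduction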 (primary screen)
Cells: Drosophila clone 8 (Cl8) cells
Reagents: long dsRNA against Drosophila genes
Measured: 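Firefly light from a Hedgehog-responsive ptc promoter reporter and Renilla reference light, both read on a plate reader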
Scale: firefly Hh reporter signal: higher = more ptc reporter light; Renilla reference signal: higher = more Renilla control light
Call rule: 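Called a hit if the two-replicate mean z-score lies below -2 or above +3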
Meaning of the calls: active = hit: reporter lowered or raised; inactive = not a hit

target gene | amplicon | firefly Hh reporter signal, replicate 1 | firefly Hh reporter signal, replicate 2 | Renilla reference signal, replicate 1 | Renilla reference signal, replicate 2
His3.3B | DRSC17773 | 1.11e5 | 3.53e5 | 3412 | 11130
His3.3B | DRSC18673 | 2.58e5 | 63516 | 6370 | 1488
CkIalpha | DRSC20231 | 71836 | 1.53e5 | 3725 | 7752
gem | DRSC06093 | 79555 | 31280 | 3578 | 1173
gem | DRSC06847 | 99713 | 37920 | 2155 | 3127
Ccdc58 + CG34116 | DRSC10105 | 86323 | 99757 | 2896 | 2775
simj | DRSC10942 | 61690 | 1.03e5 | 2897 | 3472
Cdlc2 | DRSC00743 | 93157 | 69528 | 2807 | 2630
stops | DRSC15095 | 77659 | 85542 | 2929 | 2389
stops | DRSC15096 | 1.17e5 | 1.11e5 | 4053 | 3024
stops | DRSC15097 | 1.29e5 | 1.04e5 | 4506 | 3308
Paris | DRSC00451 | 1.07e5 | 1.03e5 | 4394 | 4204
MED14 | DRSC08235 | 51565 | 36668 | 2752 | 1542
Dus3 | DRSC02059 | 77814 | 69132 | 2128 | 5830
CG34126 | DRSC02726 | 1.40e5 | 55417 | 3632 | 5498
CG11825 | DRSC06090 | 1.11e5 | 62048 | 2968 | 5302
ci | DRSC17172 | 16708 (active) | 30038 | 2421 | 7725
CG9449 | DRSC11073 | 1.04e5 | 86435 | 3228 | 2024
TBC1d7 + mRpS24 | DRSC14611 | 5.41e5 | 95843 | 27238 | 3032
Pura | DRSC08891 | 85603 | 2.27e5 | 2373 | 9926
Pura | DRSC10862 | 68186 | 53523 | 6505 | 3787
Pura | DRSC10864 | 53616 | 37408 | 6256 | 3264
Pura | DRSC10865 | 56045 | 43233 | 6455 | 4017
Pura | DRSC10866 | 61466 | 84279 | 7160 | 6386
Atf6 | DRSC04743 | 1.77e5 | 3.51e5 | 5083 | 16823
Atf6 | DRSC04889 | 88928 | 48909 | 1904 | 5056
Hus1-like | DRSC12353 | 1.16e5 | 1.74e5 | 3104 | 4951
CG6465 | DRSC16046 | 1.16e5 | 1.03e5 | 5048 | 4000
Obp22a | DRSC00088 | 6.23e5 | 2.60e5 | 32880 | 10497
Ir64a | DRSC09759 | 52016 | 61659 | 6023 | 3770
Ir64a | DRSC09760 | 55105 | 50640 | 6195 | 3600
CG13197 | DRSC06322 | 1.00e5 | 57395 | 2661 | 3853
Or98a | DRSC16774 | 83888 | 1.11e5 | 3536 | 3592
gish | DRSC16154 | 1.15e5 | 81457 | 4484 | 3175
ZnT35C | DRSC01959 | 1.31e5 | 55643 | 3204 | 4951
CG46298 | DRSC06222 | 1.13e5 | 42259 | 2436 | 4033
CG13096 | DRSC02198 | 67981 | 34768 | 2064 | 4107
CG2260 | DRSC18223 | 1.13e5 | 78701 | 2601 | 1909
CG12608 | DRSC19472 | 1.55e5 | 78397 | 3194 | 2427
Cds | DRSC10938 | 1.85e5 | 96208 | 6267 | 3616
ImpE1 | DRSC11195 | 66902 | 68373 | 7645 | 5029
ImpE1 | DRSC11196 | 45748 | 44984 | 5714 | 3850
Rabex-5 | DRSC08628 | 93088 | 85837 | 4872 | 3510
cnir | DRSC00499 | 2.11e5 | 76608 | 4789 | 7841
Cyp9b2 | DRSC07390 | 69573 | 43911 | 1840 | 4305
CR6900 | DRSC20018 | 69643 | 1.86e5 | 1752 | 8598
Esp | DRSC16664 | 5.35e5 | 97600 | 25153 | 3035
Yp2 | DRSC18732 | 80856 | 75920 | 1938 | 1586
CG15706 | DRSC06577 | 66025 | 36592 | 1781 | 2560
Vps60 | DRSC10610 | 1.06e5 | – | 5076 | 3339
CG13579 | DRSC04215 | 70148 | 69085 | 1258 | 5746
PolE1 | DRSC16112 | 82151 | 65909 | 3991 | 2819
CG7632 | DRSC11842 | 86560 | 1.04e5 | 3296 | 3188
FucTA | DRSC10733 | 60091 | – | 1019 | 1865
RpS3 | DRSC16838 | 2.66e5 (active) | 36061 | 19669 | 2048
CG6287 | DRSC02947 | 74253 | 51042 | 3181 | 2080
grh | DRSC05680 | 1.75e5 | 3.31e5 | 5250 | 14336
grh | DRSC05683 | 76517 | 1.42e5 | 1885 | 4460
grh | DRSC07624 | 1.15e5 | 89784 | 4724 | 4021
grh | DRSC07625 | 79187 | 60215 | 1392 | 4629
Ada1-1 + Ada1-2 | DRSC01220 | 6.99e5 | 2.61e5 | 41034 | 11225
Ada1-1 + Ada1-2 | DRSC01222 | 4.83e5 | 2.05e5 | 29010 | 8934
Eig71Eh | DRSC11155 | 1.70e5 | – | 6169 | 5236
CG43063 | DRSC12948 | 44748 | 1.32e5 | 9383 | 2699
CG9577 | DRSC20693 | 1.51e5 | 3.61e5 | 5424 | 14272
CG13203 | DRSC06327 | 87015 | 62656 | 2134 | 4636
Rbp1 | DRSC16817 | 1.11e5 | 99665 | 4168 | 3347
CG6974 | DRSC16160 | 55654 | 81632 | 1692 | 2115
CG44014 + CG44013 | DRSC14995 | 1.26e5 | 1.28e5 | 2737 | 4018
CG9662 | DRSC00723 | 1.43e5 | 68629 | 3513 | 6576
Mtp | DRSC03216 | 64727 | 51632 | 2857 | 2179
ast | DRSC00803 | 1.31e5 | 46006 | 4338 | 2201
Mip | DRSC10639 | 48105 | 55403 | 2017 | 2467

Reagents above with an active call:
target gene | amplicon | firefly Hh reporter signal, replicate 1 | firefly Hh reporter signal, replicate 2 | Renilla reference signal, replicate 1 | Renilla reference signal, replicate 2
ci | DRSC17172 | 16708 (active) | 30038 | 2421 | 7725
RpS3 | DRSC16838 | 2.66e5 (active) | 36061 | 19669 | 2048
